From the supplement of paper PMC10849652
Some of the results follow.

Chains of the proteins cited; added tags and fusions are not shown. Lines headed by an entry give the natural chain unless they say otherwise; changes in a name come on top.
UniProt O76095: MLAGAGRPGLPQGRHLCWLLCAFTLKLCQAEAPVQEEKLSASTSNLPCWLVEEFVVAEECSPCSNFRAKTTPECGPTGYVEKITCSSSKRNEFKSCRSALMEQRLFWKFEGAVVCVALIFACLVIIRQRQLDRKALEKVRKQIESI
UniProt Q7L273: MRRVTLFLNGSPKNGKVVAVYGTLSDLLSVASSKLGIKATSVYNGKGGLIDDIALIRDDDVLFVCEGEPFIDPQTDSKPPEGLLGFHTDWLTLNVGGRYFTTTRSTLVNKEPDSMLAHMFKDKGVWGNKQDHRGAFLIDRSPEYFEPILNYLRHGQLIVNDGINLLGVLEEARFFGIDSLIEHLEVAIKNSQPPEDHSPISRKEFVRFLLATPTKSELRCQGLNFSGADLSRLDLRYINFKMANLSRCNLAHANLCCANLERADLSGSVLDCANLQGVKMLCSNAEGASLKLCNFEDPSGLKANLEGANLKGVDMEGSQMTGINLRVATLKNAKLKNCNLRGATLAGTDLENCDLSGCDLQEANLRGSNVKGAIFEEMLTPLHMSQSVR
UniProt Q9ULH0: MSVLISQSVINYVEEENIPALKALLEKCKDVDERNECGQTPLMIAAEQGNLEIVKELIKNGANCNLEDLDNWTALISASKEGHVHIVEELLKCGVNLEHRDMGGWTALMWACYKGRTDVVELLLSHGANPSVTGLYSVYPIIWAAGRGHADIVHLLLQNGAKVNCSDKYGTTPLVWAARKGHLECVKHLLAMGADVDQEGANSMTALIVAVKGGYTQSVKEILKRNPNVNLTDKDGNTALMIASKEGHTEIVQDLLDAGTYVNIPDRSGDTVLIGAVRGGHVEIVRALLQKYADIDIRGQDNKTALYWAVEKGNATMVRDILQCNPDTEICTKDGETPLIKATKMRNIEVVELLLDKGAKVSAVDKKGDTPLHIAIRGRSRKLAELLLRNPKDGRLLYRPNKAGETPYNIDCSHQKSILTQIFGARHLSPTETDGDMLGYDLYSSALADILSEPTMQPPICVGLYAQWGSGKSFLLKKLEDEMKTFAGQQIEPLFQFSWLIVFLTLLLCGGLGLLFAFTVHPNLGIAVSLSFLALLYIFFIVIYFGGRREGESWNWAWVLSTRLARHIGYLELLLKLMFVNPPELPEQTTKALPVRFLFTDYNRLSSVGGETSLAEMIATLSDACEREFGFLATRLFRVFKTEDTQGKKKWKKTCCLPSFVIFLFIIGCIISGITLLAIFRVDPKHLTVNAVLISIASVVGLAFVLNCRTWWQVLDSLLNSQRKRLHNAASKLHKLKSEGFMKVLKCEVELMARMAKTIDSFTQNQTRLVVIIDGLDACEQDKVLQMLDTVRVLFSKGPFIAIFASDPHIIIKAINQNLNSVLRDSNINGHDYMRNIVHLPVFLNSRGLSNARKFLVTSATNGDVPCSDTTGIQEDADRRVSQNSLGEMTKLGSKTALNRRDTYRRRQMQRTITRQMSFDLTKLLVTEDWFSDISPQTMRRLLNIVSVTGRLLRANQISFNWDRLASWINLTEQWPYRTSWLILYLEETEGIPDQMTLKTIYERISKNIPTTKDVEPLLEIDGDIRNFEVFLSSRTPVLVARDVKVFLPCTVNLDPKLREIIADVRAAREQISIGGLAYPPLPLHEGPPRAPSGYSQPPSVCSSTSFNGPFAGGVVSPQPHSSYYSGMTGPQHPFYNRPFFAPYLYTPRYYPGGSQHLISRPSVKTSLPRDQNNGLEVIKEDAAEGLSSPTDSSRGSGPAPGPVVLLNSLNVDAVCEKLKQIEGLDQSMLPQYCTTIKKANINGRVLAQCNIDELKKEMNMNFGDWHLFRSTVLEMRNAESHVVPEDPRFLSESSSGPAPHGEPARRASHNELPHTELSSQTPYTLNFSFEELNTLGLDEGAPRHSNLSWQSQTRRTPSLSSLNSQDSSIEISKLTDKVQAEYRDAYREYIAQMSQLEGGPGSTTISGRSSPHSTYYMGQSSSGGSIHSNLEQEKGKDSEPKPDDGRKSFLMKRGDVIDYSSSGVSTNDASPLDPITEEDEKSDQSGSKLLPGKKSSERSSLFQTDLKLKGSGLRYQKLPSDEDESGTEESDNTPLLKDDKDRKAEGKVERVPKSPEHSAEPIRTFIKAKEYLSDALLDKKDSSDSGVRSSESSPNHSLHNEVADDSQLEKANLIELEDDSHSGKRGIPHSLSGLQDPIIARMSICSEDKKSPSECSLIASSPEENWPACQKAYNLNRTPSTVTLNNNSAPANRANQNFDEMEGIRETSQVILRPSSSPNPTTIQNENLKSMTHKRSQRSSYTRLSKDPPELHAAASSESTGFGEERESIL
UniProt Q8WVZ9: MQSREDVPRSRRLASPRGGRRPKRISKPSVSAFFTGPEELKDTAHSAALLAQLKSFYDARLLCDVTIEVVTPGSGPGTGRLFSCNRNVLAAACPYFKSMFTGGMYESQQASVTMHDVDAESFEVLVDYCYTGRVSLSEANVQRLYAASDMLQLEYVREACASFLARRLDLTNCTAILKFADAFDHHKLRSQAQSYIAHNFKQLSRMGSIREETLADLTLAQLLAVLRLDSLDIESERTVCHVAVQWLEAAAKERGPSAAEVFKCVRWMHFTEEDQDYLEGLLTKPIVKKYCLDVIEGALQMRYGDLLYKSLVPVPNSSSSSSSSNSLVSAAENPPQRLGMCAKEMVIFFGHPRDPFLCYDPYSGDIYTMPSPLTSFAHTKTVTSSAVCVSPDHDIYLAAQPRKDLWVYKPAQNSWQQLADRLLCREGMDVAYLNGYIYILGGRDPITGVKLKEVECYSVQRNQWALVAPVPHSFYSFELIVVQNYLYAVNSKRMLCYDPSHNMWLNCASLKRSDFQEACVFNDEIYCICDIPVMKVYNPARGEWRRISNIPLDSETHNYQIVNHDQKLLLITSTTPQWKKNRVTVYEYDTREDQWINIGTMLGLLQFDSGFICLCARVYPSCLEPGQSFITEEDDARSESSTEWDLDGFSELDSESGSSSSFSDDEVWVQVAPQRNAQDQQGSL
UniProt P24390: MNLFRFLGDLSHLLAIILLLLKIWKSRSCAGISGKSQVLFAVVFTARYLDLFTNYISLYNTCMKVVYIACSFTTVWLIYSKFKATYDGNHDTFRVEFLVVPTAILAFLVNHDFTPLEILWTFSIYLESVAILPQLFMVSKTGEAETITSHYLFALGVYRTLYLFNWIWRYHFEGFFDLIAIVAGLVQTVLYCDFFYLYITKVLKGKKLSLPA
UniProt O43896: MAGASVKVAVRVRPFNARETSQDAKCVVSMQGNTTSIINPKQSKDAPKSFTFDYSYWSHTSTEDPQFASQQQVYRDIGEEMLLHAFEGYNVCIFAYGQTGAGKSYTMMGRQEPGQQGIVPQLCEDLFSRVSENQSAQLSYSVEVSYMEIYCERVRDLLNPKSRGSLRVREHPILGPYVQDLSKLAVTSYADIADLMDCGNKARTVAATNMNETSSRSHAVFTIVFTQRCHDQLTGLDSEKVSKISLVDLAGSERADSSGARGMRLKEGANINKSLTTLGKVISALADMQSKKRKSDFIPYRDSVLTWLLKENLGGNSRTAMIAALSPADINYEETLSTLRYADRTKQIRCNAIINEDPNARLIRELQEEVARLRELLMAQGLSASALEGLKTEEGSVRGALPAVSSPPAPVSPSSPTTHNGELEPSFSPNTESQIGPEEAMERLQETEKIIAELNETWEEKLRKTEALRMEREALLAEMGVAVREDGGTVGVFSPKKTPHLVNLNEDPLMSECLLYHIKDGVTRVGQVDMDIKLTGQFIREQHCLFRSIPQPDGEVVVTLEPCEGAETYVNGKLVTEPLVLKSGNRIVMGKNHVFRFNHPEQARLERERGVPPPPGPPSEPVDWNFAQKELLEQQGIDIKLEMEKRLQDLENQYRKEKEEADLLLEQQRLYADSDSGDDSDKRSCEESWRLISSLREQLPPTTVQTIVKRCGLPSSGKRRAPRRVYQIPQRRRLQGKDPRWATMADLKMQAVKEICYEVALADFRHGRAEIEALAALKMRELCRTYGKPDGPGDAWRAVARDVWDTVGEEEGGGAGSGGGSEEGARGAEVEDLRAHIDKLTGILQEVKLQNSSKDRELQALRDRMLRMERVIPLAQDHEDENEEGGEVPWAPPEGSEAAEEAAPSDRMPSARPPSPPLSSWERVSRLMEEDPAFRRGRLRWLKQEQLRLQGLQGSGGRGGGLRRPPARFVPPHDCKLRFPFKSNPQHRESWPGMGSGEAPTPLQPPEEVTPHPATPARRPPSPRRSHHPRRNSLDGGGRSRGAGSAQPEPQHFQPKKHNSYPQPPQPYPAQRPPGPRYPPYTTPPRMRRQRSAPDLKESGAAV
UniProt O00180: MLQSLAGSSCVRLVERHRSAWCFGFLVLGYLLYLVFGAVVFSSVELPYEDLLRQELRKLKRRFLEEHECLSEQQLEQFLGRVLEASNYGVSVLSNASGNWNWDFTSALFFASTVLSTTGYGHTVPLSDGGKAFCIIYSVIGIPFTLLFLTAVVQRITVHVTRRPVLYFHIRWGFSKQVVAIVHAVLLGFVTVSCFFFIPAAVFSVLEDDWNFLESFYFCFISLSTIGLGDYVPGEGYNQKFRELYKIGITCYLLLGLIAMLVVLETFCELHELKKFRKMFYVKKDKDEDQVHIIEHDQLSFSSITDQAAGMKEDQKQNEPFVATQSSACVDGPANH
UniProt Q9ULI4: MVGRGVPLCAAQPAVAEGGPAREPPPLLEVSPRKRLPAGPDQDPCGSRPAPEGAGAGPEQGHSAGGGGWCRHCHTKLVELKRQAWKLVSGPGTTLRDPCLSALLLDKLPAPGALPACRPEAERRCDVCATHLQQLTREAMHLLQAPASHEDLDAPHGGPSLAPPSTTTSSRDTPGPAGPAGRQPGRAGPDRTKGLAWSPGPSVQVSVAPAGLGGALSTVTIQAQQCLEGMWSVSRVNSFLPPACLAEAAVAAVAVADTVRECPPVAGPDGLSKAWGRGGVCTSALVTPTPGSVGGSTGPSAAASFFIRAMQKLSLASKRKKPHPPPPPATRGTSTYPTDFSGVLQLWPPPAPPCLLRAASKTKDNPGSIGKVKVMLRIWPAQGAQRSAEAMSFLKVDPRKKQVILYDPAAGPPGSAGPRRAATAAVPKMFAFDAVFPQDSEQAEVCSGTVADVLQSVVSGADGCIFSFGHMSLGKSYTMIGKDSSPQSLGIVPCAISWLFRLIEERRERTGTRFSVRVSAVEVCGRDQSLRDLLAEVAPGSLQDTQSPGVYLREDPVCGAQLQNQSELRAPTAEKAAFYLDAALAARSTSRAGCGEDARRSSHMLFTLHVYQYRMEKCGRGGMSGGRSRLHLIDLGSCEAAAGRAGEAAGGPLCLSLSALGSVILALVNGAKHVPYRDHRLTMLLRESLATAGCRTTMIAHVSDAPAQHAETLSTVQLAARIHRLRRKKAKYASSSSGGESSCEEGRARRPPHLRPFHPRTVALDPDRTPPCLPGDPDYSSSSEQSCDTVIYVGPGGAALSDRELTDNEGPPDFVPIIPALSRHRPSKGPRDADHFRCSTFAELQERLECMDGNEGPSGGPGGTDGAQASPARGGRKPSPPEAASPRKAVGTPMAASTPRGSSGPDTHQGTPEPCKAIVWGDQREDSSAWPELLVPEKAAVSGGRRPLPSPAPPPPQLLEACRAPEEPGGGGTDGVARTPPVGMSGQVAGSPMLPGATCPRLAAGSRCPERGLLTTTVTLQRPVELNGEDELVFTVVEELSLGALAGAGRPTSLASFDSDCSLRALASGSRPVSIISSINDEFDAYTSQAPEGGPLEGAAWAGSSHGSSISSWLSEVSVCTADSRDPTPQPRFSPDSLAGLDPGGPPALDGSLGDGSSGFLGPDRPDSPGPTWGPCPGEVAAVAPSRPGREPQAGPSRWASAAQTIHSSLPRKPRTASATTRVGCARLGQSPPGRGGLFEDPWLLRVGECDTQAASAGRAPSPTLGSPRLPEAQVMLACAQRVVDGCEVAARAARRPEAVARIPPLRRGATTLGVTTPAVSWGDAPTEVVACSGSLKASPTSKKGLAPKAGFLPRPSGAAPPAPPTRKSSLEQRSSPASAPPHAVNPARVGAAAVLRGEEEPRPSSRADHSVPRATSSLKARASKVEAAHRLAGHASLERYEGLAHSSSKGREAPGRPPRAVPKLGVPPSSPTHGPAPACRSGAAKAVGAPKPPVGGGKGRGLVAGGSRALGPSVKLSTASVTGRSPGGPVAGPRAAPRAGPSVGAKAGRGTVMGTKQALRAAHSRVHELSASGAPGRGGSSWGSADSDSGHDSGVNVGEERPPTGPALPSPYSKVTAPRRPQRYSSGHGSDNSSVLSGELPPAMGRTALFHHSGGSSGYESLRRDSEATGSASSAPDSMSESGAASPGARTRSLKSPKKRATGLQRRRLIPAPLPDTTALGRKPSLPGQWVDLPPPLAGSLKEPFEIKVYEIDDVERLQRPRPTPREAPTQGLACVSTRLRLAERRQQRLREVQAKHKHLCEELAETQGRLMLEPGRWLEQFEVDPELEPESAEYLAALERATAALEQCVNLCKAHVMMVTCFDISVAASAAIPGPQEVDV

Key:
Test in all cases: log2 fold change, soluble protein after heating vs DMSO (PISA); higher = thermal stabilisation; K562 cells, 10 uM, 30 min; active = over 0.2 and 3.5 SD of the protein, either way, in both replicates (recomputed)
[1] = compound: NC(=O)Nc1cc(-c2cccc(F)c2)sc1C(=O)N[C@H]1CCCNC1
How it was run: (§1)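 K562 cells (2×10^6 cells/mL) were treated with 10 μM compound for 30 min, and aliquots were heated for 3 min over 48°C-58°C. Pooled aliquots were extracted in PBS with 0.5% NP-40 at 4°C, and the supernatant after 21,000xg for 90 min was measured by TMTpro 16plex LC-MS/MS with channel sums equalised. Reported thermal stability, relative to control samples and from duplicates, is a log2 fold change.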

[2] = compound: NC(=O)c1cnc(N[C@@H]2CCCC[C@@H]2N)nc1Nc1cccc(-n2nccn2)c1
How it was run: as §1

[3] = compound: NC1(c2ccc(-c3nc4ccn5c(=O)[nH]nc5c4cc3-c3ccccc3)cc2)CCC1
How it was run: as §1

[4] = compound: NCC(=O)Nc1ccc(-n2nc(C(F)(F)F)cc2-c2ccc3c(ccc4ccccc43)c2)cc1
How it was run: as §1

entinostat = compound: Nc1ccccc1NC(=O)c1ccc(CNC(=O)OCc2cccnc2)cc1 [entinostat]
How it was run: as §1

vorinostat = compound: O=C(CCCCCCC(=O)Nc1ccccc1)NO [vorinostat]
How it was run: as §1

citarinostat = compound: O=C(CCCCCCNC(=O)c1cnc(N(c2ccccc2)c2ccccc2Cl)nc1)NO [citarinostat]
How it was run: as §1

silmitasertib = compound: O=C(O)c1ccc2c(c1)nc(Nc1cccc(Cl)c1)c1ccncc12 [silmitasertib]
How it was run: as §1

[5] = compound: O=C1NC(=O)C(c2cnc3ccccn23)=C1c1cn2c3c(cc(F)cc13)CN(C(=O)N1CCCCC1)CC2
How it was run: as §1

[6] = compound: c1cc(OCCN2CCCCC2)cc(-c2n[nH]c3ccc(-c4nnc[nH]4)cc23)c1
How it was run: as §1

Measured: log2 fold change

KLHL11 (UniProt Q9NVR0)
inactive: [1] 0.095 | [2] -0.168 | [3] -0.1 | [4] -0.046 | entinostat -0.009 | vorinostat -0.024 | citarinostat 0.195 | silmitasertib 0.059 | [5] -0.002 | [6] 0.008

KLHL7 isoform 3 (UniProt Q8IXQ5)
inactive: [1] 0.125 | [2] 0.157 | [3] -0.04 | entinostat 0.005 | silmitasertib -0.287 | [5] -0.123

KIF2A isoform 4 (UniProt O00139)
inactive: [1] 0.031 | [2] 0.003 | [3] 0.092 | [4] 0.018 | entinostat 0 | vorinostat -0.043 | citarinostat -0.036 | silmitasertib 0.11 | [5] 0.159 | [6] -0.149

KIAA0513 (UniProt O60268)
inactive: [1] -0.087 | [2] -0.027 | [3] -0.135 | [4] 0 | entinostat -0.032 | vorinostat 0.048 | silmitasertib 0.005

JTB (UniProt O76095)
inactive: [1] -0.06 | [2] 0.105 | [3] -0.122 | [4] -0.028 | entinostat 0.032 | citarinostat -0.1 | silmitasertib 0.098 | [5] -0.014 | [6] 0.077

JMJD8 (UniProt Q96S16)
inactive: [1] 0.134 | [2] 0.074 | [3] -0.022 | [4] -0.105 | entinostat 0.049 | silmitasertib 0.073

KLC1 isoform 6 (UniProt Q07866)
inactive: [1] -0.04 | [2] -0.046 | [3] -0.079 | [4] -0.051 | entinostat 0.027 | vorinostat 0.015 | citarinostat 0.035 | silmitasertib 0.02 | [5] -0.015 | [6] -0.065

KCTD9 (UniProt Q7L273)
inactive: [1] -0.026 | [2] 0.008 | [3] -0.011 | [4] 0.038 | entinostat -0.015 | vorinostat 0.008 | citarinostat 0.044 | silmitasertib 0.008 | [5] -0.1 | [6] -0.113

KNG1 (UniProt P01042)
inactive: [1] -0.055 | [2] -0.048 | [3] 0.312 | [4] -0.054 | entinostat -0.127 | vorinostat 0.078 | citarinostat -0.119 | silmitasertib 0.254 | [6] 0.374

KDM3B (UniProt Q7LBC6)
inactive: [1] -0.051 | [2] -0.033 | [3] -0.114 | [4] -0.088 | entinostat 0.027 | vorinostat 0.069 | citarinostat 0.098 | silmitasertib 0.056 | [5] -0.064 | [6] -0.023

KDM8 isoform 3 (UniProt Q8N371)
inactive: [1] 0.039 | [2] -0.076 | [3] -0.119 | [4] 0.004 | entinostat -0.042 | vorinostat 0.162 | citarinostat 0.021 | silmitasertib 0.035 | [5] -0.013 | [6] -0.028

IVNS1ABP (UniProt Q9Y6Y0)
inactive: [1] -0.098 | [2] 0.019 | [3] -0.031 | [4] -0.01 | entinostat -0.058 | vorinostat 0.136 | citarinostat 0.01 | silmitasertib 0.043 | [5] 0.037 | [6] 0.032

JMJD4 (UniProt Q9H9V9)
inactive: [1] -0.119 | [2] -0.03 | entinostat -0.142

KSR2 (UniProt Q6VAB6)
inactive: [1] -0.107 | entinostat 0.136 | vorinostat 0.077 | [5] 0.094

KLC3 isoform 3 (UniProt Q6P597)
inactive: [1] -0.44 | entinostat 0.094

KIDINS220 isoform 2 (UniProt Q9ULH0)
inactive: [1] -0.26 | [4] -0.402 | entinostat -0.211 | [5] -0.291

KLF1 (UniProt Q13351)
inactive: [1] -0.012 | [3] 0.18 | [4] 0.116 | entinostat -0.301 | vorinostat -0.069 | citarinostat -0.092 | silmitasertib -0.016 | [6] -0.189

KDM1B (UniProt Q8NB78)
inactive: [1] -0.032 | [3] -0.049 | entinostat -0.183 | citarinostat -0.044 | silmitasertib 0.067 | [6] 0.383

KMT5A (UniProt Q9NQR1)
inactive: [1] 0.069 | entinostat -0.258 | vorinostat 0.096

KDM2A (UniProt Q9Y2K7)
inactive: [1] 0.137 | [3] -0.14 | [4] -0.017 | entinostat 0.151 | vorinostat 0.103 | citarinostat 0.018 | silmitasertib -0.037 | [5] -0.02 | [6] -0.114

JUN (UniProt P05412)
inactive: [1] -0.286 | [3] 0.092 | entinostat -0.094 | citarinostat -0.124 | silmitasertib 0.039 | [6] 0.197

JAK3 (UniProt P52333)
inactive: [1] 0 | [3] -0.045 | [4] -0.102 | entinostat -0.019 | vorinostat -0.048 | silmitasertib -0.003 | [5] 0.002

KBTBD7 (UniProt Q8WVZ9)
inactive: [1] 0.154 | entinostat -0.076 | vorinostat -0.027

KDELR1 (UniProt P24390)
inactive: [1] 0.187 | [3] 0 | entinostat -0.127 | citarinostat 0.05 | silmitasertib 0.005 | [5] 0.27 | [6] -0.065

KIN (UniProt O60870)
inactive: [1] -0.009 | entinostat -0.098 | vorinostat 0.07

KMT2A isoform 3 (UniProt Q03164)
inactive: [1] -0.24 | entinostat -0.077 | vorinostat 0.058

KIF1C (UniProt O43896)
inactive: [1] -0.091 | entinostat 0.169

KCTD21 (UniProt Q4G0X4)
inactive: [1] -0.013 | [2] -0.039 | entinostat -0.039

KLC1 isoform 3 (UniProt Q07866)
inactive: [2] -0.129

KCNK1 (UniProt O00180)
inactive: [1] 0.072 | entinostat -0.071 | vorinostat -0.143 | citarinostat -0.077 | [5] -0.006 | [6] 0.504

KNL1 (UniProt Q8NG31)
inactive: [1] 0.088 | [3] -0.023 | entinostat 0.007 | vorinostat 0.109 | citarinostat 0.168 | silmitasertib -0.059 | [5] 0.106 | [6] -0.031

KRIT1 (UniProt O00522)
inactive: [1] -0.169 | [4] 0.092 | entinostat -0.261 | vorinostat 0.018 | [5] 0.204

KCNK5 (UniProt O95279)
inactive: [1] -0.066 | [3] 0.16 | entinostat 0.031 | vorinostat -0.102 | citarinostat 0.198 | silmitasertib 0.093 | [5] 0.004 | [6] 0.005

KIFC3 isoform 6 (UniProt Q9BVG8)
inactive: [1] -0.499 | [3] -0.212 | [4] 0.039 | entinostat -0.285 | vorinostat -0.144 | citarinostat -0.216 | silmitasertib 0.103 | [5] -0.138 | [6] -0.262

KIF26A (UniProt Q9ULI4)
inactive: [1] -0.042 | [3] -0.103 | entinostat -0.021 | citarinostat 0.061 | silmitasertib -0.001 | [6] -0.154
